The supplement of paper PMC11006884
This list holds what a sample rich in targets with a hit left over. The data scatter; read single values as rough. Only a part is listed here, and it is no random draw.

By UniProt entry, the sequences of proteins in these tests, tags left out. Where a name states a change or a piece, a line headed by the entry shows the natural chain unless it says otherwise.
UniProt Q9NU22: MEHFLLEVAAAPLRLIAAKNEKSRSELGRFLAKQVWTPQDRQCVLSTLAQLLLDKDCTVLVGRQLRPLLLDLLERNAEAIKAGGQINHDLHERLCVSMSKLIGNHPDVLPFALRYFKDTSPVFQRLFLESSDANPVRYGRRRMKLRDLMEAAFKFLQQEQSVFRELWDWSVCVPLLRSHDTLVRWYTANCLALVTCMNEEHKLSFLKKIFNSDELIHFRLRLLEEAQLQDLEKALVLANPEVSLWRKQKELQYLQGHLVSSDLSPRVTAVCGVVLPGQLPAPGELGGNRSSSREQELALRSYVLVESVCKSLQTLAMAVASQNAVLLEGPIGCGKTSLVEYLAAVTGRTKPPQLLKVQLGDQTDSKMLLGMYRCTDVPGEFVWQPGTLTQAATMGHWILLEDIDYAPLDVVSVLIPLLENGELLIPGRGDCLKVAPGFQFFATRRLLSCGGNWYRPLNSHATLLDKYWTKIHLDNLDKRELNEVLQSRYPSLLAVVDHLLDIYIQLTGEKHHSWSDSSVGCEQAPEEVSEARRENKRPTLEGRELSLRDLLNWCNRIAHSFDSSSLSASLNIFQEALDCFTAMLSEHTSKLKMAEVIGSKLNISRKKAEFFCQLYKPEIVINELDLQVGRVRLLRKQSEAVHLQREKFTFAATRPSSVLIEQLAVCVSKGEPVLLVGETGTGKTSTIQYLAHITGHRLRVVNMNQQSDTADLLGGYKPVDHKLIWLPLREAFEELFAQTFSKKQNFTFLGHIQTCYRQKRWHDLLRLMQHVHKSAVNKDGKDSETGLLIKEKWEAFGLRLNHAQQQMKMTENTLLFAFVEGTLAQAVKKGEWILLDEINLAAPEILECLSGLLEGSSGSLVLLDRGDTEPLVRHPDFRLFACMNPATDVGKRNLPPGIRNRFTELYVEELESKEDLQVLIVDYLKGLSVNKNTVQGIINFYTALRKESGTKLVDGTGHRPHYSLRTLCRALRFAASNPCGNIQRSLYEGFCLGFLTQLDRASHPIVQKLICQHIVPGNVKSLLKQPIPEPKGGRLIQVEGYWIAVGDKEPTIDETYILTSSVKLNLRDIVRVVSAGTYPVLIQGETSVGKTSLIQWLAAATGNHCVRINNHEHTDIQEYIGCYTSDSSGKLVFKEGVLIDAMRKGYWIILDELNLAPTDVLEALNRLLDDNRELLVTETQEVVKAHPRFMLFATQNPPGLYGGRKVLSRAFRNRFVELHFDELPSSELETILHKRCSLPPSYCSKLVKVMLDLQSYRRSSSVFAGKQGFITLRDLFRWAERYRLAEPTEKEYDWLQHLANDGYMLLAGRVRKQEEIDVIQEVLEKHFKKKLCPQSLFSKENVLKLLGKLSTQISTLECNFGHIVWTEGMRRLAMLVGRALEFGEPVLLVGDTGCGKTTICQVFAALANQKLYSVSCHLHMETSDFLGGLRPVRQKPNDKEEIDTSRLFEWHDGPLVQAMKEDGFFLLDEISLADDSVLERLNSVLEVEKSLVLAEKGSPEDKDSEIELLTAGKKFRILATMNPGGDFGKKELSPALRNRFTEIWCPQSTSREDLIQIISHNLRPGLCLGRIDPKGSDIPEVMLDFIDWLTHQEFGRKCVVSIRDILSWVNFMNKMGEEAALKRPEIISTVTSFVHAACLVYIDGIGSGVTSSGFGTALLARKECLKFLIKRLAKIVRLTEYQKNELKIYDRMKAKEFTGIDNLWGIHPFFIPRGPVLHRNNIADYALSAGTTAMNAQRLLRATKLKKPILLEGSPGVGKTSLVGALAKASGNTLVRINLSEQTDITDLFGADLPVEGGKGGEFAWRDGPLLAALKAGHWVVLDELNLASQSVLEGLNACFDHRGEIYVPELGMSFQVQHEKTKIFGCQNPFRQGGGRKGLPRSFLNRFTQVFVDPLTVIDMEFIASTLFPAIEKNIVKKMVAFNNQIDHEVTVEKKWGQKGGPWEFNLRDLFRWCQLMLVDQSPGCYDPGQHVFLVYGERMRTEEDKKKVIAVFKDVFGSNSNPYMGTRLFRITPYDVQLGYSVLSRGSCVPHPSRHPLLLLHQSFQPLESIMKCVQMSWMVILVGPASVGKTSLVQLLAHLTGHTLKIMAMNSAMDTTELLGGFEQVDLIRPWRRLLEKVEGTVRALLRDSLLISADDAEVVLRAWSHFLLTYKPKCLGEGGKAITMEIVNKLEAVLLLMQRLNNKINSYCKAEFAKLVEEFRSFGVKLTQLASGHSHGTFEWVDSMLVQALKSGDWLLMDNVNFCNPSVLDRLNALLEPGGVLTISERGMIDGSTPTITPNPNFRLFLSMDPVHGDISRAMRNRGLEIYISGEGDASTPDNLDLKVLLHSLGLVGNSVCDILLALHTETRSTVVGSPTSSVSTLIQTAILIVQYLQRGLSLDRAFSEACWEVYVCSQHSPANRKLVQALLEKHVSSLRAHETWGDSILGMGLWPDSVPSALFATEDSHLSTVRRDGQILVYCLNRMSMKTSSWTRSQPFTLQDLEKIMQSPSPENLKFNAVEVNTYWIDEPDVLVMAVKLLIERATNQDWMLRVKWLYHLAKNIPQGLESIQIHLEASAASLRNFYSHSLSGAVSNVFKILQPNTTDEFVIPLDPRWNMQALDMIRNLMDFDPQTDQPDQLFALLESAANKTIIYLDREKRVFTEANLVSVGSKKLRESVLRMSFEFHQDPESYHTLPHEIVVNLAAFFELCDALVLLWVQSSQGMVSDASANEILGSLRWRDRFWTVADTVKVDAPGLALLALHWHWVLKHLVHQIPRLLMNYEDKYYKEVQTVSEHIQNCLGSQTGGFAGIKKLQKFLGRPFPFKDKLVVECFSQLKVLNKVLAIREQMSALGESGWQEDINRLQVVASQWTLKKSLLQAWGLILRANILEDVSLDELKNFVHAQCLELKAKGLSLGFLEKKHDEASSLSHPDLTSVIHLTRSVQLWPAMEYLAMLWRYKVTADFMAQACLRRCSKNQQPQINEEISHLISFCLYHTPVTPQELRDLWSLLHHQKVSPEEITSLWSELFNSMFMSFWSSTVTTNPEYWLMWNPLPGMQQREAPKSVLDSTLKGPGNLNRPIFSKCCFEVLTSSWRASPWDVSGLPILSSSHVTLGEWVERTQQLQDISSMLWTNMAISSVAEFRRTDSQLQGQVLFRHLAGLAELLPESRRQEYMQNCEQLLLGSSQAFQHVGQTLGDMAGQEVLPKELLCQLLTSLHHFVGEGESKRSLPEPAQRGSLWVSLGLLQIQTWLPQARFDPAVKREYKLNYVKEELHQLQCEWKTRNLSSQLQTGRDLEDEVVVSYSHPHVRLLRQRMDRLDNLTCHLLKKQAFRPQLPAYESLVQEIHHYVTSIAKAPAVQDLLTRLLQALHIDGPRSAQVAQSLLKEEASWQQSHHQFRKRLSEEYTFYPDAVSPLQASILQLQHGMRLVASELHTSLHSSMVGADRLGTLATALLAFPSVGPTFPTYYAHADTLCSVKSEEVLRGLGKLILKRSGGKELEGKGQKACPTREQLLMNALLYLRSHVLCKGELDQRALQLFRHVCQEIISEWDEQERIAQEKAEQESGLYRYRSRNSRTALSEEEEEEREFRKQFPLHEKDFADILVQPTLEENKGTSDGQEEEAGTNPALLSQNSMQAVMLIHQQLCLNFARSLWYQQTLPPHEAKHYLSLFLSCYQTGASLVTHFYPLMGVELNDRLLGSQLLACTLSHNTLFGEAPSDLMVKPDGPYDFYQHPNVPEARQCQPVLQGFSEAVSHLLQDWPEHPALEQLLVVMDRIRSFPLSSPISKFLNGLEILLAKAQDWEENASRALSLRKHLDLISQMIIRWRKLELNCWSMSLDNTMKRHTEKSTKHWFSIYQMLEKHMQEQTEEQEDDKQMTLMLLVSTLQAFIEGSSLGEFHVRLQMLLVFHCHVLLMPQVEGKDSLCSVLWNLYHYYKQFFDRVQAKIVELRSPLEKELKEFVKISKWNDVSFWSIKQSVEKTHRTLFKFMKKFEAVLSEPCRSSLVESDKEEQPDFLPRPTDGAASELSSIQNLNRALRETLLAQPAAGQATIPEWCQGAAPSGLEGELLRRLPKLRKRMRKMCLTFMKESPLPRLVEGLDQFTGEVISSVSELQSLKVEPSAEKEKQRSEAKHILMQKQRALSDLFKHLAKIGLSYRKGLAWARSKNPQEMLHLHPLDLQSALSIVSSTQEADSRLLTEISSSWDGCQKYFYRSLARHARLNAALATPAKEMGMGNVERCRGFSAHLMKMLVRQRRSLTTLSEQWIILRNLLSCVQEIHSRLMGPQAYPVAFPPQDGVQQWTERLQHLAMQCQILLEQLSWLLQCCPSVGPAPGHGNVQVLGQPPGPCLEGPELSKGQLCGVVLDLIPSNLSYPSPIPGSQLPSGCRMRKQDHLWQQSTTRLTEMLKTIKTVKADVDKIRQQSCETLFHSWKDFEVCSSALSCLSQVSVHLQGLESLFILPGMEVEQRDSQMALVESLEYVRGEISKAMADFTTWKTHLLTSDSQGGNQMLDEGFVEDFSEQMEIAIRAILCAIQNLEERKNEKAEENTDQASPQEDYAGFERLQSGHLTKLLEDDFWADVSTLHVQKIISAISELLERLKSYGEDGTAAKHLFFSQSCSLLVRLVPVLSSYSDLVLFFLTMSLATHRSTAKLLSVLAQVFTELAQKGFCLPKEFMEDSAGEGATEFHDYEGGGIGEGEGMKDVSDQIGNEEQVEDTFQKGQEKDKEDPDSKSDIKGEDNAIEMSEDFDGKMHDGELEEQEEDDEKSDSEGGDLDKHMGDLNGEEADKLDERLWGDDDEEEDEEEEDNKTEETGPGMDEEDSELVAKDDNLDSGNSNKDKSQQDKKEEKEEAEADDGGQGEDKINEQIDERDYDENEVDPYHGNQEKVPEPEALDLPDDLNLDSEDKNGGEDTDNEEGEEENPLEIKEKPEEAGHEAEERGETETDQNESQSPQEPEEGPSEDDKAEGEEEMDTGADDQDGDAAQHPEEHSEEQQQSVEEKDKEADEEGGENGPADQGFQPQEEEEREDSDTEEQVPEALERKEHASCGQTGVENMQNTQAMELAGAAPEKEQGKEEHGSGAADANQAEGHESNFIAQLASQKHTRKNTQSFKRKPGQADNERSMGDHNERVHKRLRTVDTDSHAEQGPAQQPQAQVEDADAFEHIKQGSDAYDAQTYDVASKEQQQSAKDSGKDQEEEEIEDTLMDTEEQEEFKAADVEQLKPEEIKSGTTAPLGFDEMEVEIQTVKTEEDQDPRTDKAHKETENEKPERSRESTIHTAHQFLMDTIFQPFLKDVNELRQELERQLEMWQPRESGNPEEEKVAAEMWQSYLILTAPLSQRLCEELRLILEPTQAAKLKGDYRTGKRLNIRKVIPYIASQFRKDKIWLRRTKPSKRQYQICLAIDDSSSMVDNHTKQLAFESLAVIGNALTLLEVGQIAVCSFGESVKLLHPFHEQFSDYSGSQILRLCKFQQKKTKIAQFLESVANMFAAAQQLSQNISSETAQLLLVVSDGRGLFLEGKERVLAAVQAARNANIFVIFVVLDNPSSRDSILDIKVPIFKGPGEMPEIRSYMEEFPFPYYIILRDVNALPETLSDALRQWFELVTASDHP
UniProt Q9NR33: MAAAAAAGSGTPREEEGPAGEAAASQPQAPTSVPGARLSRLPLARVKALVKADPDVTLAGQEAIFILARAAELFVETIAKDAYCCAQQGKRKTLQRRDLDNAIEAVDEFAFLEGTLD
UniProt Q9NQ55: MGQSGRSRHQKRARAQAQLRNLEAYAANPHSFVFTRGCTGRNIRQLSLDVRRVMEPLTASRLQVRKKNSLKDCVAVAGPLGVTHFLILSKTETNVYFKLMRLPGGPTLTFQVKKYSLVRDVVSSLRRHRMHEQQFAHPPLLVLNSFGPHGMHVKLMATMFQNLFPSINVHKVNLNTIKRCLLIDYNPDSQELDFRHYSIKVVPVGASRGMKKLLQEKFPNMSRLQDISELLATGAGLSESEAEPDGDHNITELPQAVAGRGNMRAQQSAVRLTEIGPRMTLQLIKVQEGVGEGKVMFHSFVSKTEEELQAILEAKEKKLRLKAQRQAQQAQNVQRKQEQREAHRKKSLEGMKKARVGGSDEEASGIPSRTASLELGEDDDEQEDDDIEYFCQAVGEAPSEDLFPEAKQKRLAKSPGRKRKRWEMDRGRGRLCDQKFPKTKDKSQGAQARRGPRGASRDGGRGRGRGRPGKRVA
UniProt Q9NRP4: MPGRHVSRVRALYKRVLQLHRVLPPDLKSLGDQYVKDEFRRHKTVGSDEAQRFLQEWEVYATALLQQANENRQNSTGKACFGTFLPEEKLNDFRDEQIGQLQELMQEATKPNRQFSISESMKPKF
UniProt Q9H7C9: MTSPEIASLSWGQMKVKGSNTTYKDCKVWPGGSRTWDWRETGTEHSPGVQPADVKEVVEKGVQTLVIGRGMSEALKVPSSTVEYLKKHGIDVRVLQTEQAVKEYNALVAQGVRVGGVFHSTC

compound: COC(=O)/C=C/c1ccccc1 [methyl cinnamate]; experiment: log2 ratio of iodoacetamide-alkyne labeling of the cysteine site, DMSO over compound (competition); higher = stronger covalent engagement of the cysteine by the compound, active = 1 or more; conditions: 500 µM; treatment time 1 h; system: HEK293T cell lysate
How it was run: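 HEK293T lysate (2 mg/mL) was treated with DMSO or electrophile (500 µM, 1 h, ambient temperature), then iodoacetamide alkyne (1 h), clicked to sCIP-TMT reagents, pooled, trypsin-digested overnight at 37 °C, streptavidin-enriched and acid-eluted. Peptides were run on Orbitrap Eclipse LC-MS/MS with FAIMS and quantified in FragPipe. The log2 competition ratio per cysteine is mean control-channel over mean compound-channel reporter intensity. Duplicate channels and three replicates were used, and cysteines quantified in only one replicate were excluded.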

log2 ratio of iodoacetamide-alkyne labeling, inactive:
KIF15 C862 (UniProt Q9NS87) 0.0291
UNC45A C503 (UniProt Q9H3U1) 0.348
MDN1 C1394 (UniProt Q9NU22) 0.0468
SLC25A22 C25 (UniProt Q9H936) 0.0886
POLE4 C84 (UniProt Q9NR33) 0.0596
PPAN C180 (UniProt Q9NQ55) 0.333
MDN1 C579 (UniProt Q9NU22) -0.167
PPA2 C44 (UniProt Q9H2U2) 0.0663
SCAF1 C675 (UniProt Q9H7N4) 0.38
SENP3 C532 (UniProt Q9H4L4) 0.327
PPA2 C161 (UniProt Q9H2U2) 0.154
PDS5B C1069 (UniProt Q9NTI5) 0.162
XAB2 C66 (UniProt Q9HCS7) 0.325
SFXN1 C190 (UniProt Q9H9B4) 0.0791
BIRC6 C3404 (UniProt Q9NR09) 0.115
EXOSC4 C97 (UniProt Q9NPD3) 0.196
DMAP1 C199 (UniProt Q9NPF5) 0.282
MOV10 C16 (UniProt Q9HCE1) 0.0569
XPO5 C1131 (UniProt Q9HAV4) 0.198
FARSB C76 (UniProt Q9NSD9) 7.1e-06
CBX8 C261 (UniProt Q9HC52) 0.419
CHD8 C2378 (UniProt Q9HCK8) 0.138
MCCC2 C267 (UniProt Q9HCC0) 0.181
RPRD1B C234 (UniProt Q9NQG5) -0.119
UniProt Q9NRP4_C80 0.429
RPAP3 C519 (UniProt Q9H6T3) 0.192
BAZ1A C893 (UniProt Q9NRL2) 0.399
PREB C128 (UniProt Q9HCU5) 0.175
ZNF277 C215 (UniProt Q9NRM2) 0.0889
SARS2 C66 (UniProt Q9NP81) -0.0105
FAM83D C15 (UniProt Q9H4H8) 0.478
UniProt Q9H871_C4 0.000816
MDN1 C991 (UniProt Q9NU22) -0.0771
UniProt Q9H7C9_C122 0.235
NANS C8 (UniProt Q9NR45) 0.106
XPO5 C706 (UniProt Q9HAV4) 0.349
C11orf68 C222 (UniProt Q9H3H3) -0.0937

Three records picked at random from those above:
log2 ratio of iodoacetamide-alkyne labeling, inactive:
MDN1 C991 (UniProt Q9NU22) -0.0771
FARSB C76 (UniProt Q9NSD9) 7.1e-06
MDN1 C1394 (UniProt Q9NU22) 0.0468
